No constants are given. Whether binding was seen depends on the method and setting. Binding seen in cells or lysates may run through a third protein. Some results given as binding are weak or reduced against the parent protein; the word gives no strength.
Biological target: T1, Sestrin2 (mouse (endogenous in conditionally immortalized mouse podocytes)) (UniProt P58043)
T1 sequence: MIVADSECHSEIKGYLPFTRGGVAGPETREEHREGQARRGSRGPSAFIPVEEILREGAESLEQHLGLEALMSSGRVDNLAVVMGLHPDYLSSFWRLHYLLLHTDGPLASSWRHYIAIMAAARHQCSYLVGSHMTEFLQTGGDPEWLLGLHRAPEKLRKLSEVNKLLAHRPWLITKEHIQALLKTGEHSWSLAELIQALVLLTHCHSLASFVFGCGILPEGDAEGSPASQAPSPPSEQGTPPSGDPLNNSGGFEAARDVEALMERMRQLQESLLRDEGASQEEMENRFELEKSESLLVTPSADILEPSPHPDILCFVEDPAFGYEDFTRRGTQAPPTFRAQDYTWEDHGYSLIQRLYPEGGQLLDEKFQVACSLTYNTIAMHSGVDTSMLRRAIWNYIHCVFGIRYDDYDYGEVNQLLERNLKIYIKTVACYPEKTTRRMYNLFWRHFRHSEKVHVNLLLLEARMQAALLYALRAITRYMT
Assay: co-IP; Sestrin2 antibody (2 ug) on Protein A&G magnetic beads, incubated with podocyte lysate overnight at 4 °C; lysis buffer 50 mM Tris/HCl, 1 mM EDTA, 150 mM NaCl, 0.25% sodium deoxycholate, 1% NP-40, pH 7.4; eluate blotted with TSP-1 antibody; podocytes exposed to high glucose

Sequences of proteins named here, by UniProt entry; tags and fusion partners are left off. Residues count along the entry.
UniProt P35441, residues 19-1170: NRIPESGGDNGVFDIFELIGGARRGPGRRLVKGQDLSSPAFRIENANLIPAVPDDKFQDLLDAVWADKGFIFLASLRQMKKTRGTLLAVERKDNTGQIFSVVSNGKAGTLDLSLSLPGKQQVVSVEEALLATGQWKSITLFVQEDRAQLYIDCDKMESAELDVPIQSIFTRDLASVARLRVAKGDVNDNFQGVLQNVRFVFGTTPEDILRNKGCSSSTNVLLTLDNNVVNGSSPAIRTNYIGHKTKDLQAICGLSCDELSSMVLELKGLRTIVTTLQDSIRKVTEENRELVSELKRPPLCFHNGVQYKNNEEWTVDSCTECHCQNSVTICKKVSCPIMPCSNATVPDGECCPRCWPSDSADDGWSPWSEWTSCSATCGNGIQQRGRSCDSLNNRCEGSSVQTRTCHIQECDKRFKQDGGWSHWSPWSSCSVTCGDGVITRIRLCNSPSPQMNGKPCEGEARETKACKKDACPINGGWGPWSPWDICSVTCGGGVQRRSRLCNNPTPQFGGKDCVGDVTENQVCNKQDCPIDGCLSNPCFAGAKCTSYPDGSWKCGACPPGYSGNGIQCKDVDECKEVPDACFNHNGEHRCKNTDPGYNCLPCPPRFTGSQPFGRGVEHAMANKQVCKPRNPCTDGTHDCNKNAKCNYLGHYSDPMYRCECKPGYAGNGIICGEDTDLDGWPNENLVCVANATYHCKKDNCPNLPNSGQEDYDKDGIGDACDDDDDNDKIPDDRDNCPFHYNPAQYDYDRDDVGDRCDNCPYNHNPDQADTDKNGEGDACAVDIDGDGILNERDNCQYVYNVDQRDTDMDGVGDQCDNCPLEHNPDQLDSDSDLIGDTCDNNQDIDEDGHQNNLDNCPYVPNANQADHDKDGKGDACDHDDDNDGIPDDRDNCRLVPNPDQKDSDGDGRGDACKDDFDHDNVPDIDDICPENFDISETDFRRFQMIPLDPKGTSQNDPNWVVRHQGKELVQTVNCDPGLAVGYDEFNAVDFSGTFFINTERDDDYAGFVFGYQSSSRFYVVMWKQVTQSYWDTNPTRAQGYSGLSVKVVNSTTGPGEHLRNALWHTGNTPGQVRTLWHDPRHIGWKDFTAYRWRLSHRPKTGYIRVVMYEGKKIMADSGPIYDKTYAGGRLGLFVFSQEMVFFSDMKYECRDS

## Thrombospondin-1 (from UniProt P35441 19-1170)
  binding: binds

— publication PMC9338940
